Construct, isoform or probe ends are uncertain for at least one entry. Where a protein sequence is shown, tags need not be part of it.
Target: T1, NFAT1 DBD (UniProt Q60591)
T1 sequence (looked up, limits assumed): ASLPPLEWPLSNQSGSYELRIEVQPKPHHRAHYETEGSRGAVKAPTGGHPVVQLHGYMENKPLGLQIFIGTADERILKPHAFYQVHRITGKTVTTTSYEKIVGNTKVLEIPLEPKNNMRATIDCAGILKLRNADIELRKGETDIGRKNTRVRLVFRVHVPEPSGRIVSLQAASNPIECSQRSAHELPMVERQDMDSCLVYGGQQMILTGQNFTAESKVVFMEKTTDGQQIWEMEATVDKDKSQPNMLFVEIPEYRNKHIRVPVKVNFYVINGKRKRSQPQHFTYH
Test: EMSA
Settings: 10 nM-1 uM protein, dose-dependent, poly(dI:dC) 0.2 ug/reaction; EMSA: 10 mM HEPES pH 7.0, 125 mM NaCl, 10% glycerol, 0.25 mM DTT, 0.8 mg/mL BSA, 0.2 ug poly(dI:dC) in 20 uL, 20 min at room temperature; 4% native PAGE in 1x TBE; recombinant protein; protein details: Ni-NTA purified (His tag implied); label: 32P 5' end (T4 PNK)

GCCCAAAGAGGAAAATTTGTTTCATACAG (double strand) [IL-2 promoter NFAT site oligonucleotide]
binding result: binds
